In PMC8782181 one finds binding data, which are given here for eight molecules.

Amino acid sequences for entries named in this document (tags omitted).
UniProt P53297: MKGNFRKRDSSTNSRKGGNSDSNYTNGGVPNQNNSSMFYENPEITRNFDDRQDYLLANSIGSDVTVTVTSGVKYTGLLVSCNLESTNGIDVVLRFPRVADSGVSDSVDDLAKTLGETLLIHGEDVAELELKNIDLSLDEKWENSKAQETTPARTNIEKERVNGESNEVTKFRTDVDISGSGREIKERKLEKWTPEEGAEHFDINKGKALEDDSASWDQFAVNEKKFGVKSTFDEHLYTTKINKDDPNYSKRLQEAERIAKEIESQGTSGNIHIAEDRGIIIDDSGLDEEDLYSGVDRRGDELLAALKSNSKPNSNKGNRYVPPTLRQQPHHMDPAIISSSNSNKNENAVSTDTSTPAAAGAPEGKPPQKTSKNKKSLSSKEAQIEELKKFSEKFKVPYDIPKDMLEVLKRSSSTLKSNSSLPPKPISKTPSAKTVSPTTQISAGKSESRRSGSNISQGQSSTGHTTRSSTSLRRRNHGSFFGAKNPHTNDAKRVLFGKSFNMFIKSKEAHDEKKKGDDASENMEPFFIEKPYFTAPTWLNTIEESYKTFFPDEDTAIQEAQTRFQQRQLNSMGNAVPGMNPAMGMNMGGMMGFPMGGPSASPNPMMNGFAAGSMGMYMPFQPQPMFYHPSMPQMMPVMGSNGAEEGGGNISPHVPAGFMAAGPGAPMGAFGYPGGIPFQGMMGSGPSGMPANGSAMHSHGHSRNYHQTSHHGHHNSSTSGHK

These are yes or no findings as the source states them, for the method shown. Binding seen in cells or lysates may run through a third protein. These calls come from enrichment with a bait or labelling near it, and not all partners need be listed. For some of these results: Sequences can lack the tags named with a protein.

For one assay, the target named is T1, Dcp1-myc (S. cerevisiae) (UniProt Q12517).
T1 sequence: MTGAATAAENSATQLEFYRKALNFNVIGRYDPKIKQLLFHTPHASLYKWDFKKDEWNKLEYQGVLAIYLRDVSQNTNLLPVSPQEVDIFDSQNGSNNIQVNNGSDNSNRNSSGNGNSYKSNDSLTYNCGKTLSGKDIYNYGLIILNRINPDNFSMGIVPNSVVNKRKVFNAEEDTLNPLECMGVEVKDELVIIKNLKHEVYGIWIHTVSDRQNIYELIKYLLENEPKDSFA
The assay is described as follows: affinity purification with mass spectrometry; cells unstressed or glucose-depleted (10 min for Dcp1-myc, 60 min for Pbp1-myc), cross-linked with 0.8% formaldehyde; 20,000 g pellet of the lysate in Blob100 buffer (20 mM Tris-HCl pH 8, 100 mM NaCl, 1 mM MgCl2, 0.5% NP40) on anti-c-Myc magnetic beads, eluted with Myc peptide; label-free LC-MS/MS; hits are the proteins that cluster (Mfuzz) with the tagged bait across IP, pellet, supernatant, total and unbound fractions.

The target of the next assay is Pbp1-myc (S. cerevisiae) (UniProt P53297). Described as above.

B1: Pop2 (protein, UniProt P39008 1-433)
chain: MQSMNVQPRVLAVGGEQFFSQRQASEQHQQQNMGPQVYSPKVNRARMFPQGMPVNTINGSVNQEMNNAYLLKQKNEPLLTQQQQQQQQQQQPFNIGTPVSVASLPPGLNVLQQQQQQQQQQQQQQQGVGLNRPLASQLPKHLTNQSMPPIFLPPPNYLFVRDVWKSNLYSEFAVIRQLVSQYNHVSISTEFVGTLARPIGTFRSKVDYHYQTMRANVDFLNPIQLGLSLSDANGNKPDNGPSTWQFNFEFDPKKEIMSTESLELLRKSGINFEKHENLGIDVFEFSQLLMDSGLMMDDSVTWITYHAAYDLGFLINILMNDSMPNNKEDFEWWVHQYMPNFYDLNLVYKIIQEFKNPQLQQSSQQQQQQQYSLTTLADELGLPRFSIFTTTGGQSLLMLLSFCQLSKLSMHKFPNGTDFAKYQGVIYGIDGDQ
B1: the binding result with Dcp1-myc (S. cerevisiae) and with Pbp1-myc (S. cerevisiae) was “binds” in each case.

B2: eIF2A (protein, UniProt P53235 1-642)
chain: MSSQFFLKTSQDIELFQSYPTFEQSNTNSKDFPVISSVLSPCGRFLALSTKENVKVFTGPCLDNVLLTMKLSDVYDLHFSPAGNYLSTWERASIQDPNHKNVKVWYLNKPFKKDCVSEDIVPAYEYQAKSQSGWFLQFSKLDNYGLRLFKHDLKIVKLSSANADNFDFQSPFAVLSDDETSQHFTTYLISPAEHPTICTFTPEKGGKPAQLIIWALSEGKITKKIASKTFFKADSCQLKWNPLGNAILCLAITDFDSSNKSYYGENTLYLLSFQGVNGTLGGNSVRVSLTTGPVHDFTWSPTSRQFGVIAGYMPATISFFDLRGNVVHSLPQQAKNTMLFSPSGHYILIAGFGNLQGSVEILDRLDKFKCVSKFDATNTSVCKWSPGGEFIMTATTSPRLRVDNGVKIWHVSGSLVFVKEFKELLKVDWRSPCNYKTLENKDEAFFENHIINNWEPLPDSTTSSLDPKISNKSELQIHSSVQEYISQHPSREASSNGNGSKAKAGGAYKPPHARRTGGGRIVPGVPPGAAKKTIPGLVPGMSANKDANTKNRRRRANKKSSETSPDSTPAPSAPASTNAPTNNKETSPEEKKIRSLLKKLRAIETLKERQAVGDKLEDTQVLKIQTEEKVLKDLEKLGWKDE
As for B2, the binding result with Dcp1-myc (S. cerevisiae) and in the assay with Pbp1-myc (S. cerevisiae) was “binds” each time.

B3: Sbp1 (protein, UniProt P10080 1-294)
chain: MSAEIEEATNAVNNLSINDSEQQPRAPTHKTVIDPEDTIFIGNVAHECTEDDLKQLFVEEFGDEVSVEIPIKEHTDGHIPASKHALVKFPTKIDFDNIKENYDTKVVKDREIHIKRARTPGQMQRGGFRGRGGFRGRGGFRGGFRGGYRGGFRGRGNFRGRGGARGGFNGQKREKIPLDQMERSKDTLYINNVPFKATKEEVAEFFGTDADSISLPMRKMRDQHTGRIFTSDSANRGMAFVTFSGENVDIEAKAEEFKGKVFGDRELTVDVAVIRPENDEEEIEQETGSEEKQE
Consider B3, for which the binding entry with Dcp1-myc (S. cerevisiae) and with Pbp1-myc (S. cerevisiae) was “binds” each time.

B4: Scp160 (protein, UniProt P06105 1-1222)
chain: MSEEQTAIDSPPSTVEGSVETVTTIDSPSTTASTIAATAEEHPQLEKKPTPLPSLKDLPSLGSNAAFANVKVSWGPNMKPAVSNSPSPSPSAPSLTTGLGAKRMRSKNIQEAFTLDLQSQLSITKPELSRIVQSVKKNHDVSVESTLSKNARTFLVSGVAANVHEAKRELVKKLTKPINAVIEVPSKCKASIIGSGGRTIREISDAYEVKINVSKEVNENSYDEDMDDTTSNVSLFGDFESVNLAKAKILAIVKEETKNATIKLVVEDEKYLPYIDVSEFASDEGDEEVKVQFYKKSGDIVILGPREKAKATKTSIQDYLKKLASNLDEEKVKIPSKFQFLIDAEELKEKYNVIVTFPSTPDDELVSFVGLRDKVGEAITYARSSSKSYVVESLDISKAHSKNLTHAKNLIMYFTKYSVLKGLEESHPNVKISLPSIQSLPTAETVTIHISAKSDEANDIKAVRKELISFVNNIPPSETLVITDLDYELFGGSIKHCLLASESSVAFVQFGDYYPNDNSILLVALTEDEDFKPSIEEIQASLNKANESLNSLRTKQNNMETKTYEFSEEVQDSLFKPSSATWKLIMEDISEQEGHLQIKLHTPEENQLTVRGDEKAAKAANKIFESILNSPSSKSKMTVNIPANSVARLIGNKGSNLQQIREKFACQIDIPNEENNNASKDKTVEVTLTGLEYNLTHAKKYLAAEAKKWADIITKELIVPVKFHGSLIGPHGTYRNRLQEKYNVFINFPRDNEIVTIRGPSRGVNKAHEELKALLDFEMENGHKMVINVPAEHVPRIIGKNGDNINDIRAEYGVEMDFLQKSTDPKAQETGEVELEITGSRQNIKDAAKRVESIVAEASDFVTEVLKIDHKYHKSIVGSGGHILREIISKAGGEEIRNKSVDIPNADSENKDITVQGPQKFVKKVVEEINKIVKDAENSVTKTIDIPAERKGALIGPGGIVRRQLESEFNINLFVPNKDDPSGKITITGAPENVEKAEKKILNEIIRENFDREVDVPASIYEYVSERGAFIQKLRMDLSVNVRFGNTSKKANKLARAPIEIPLEKVCGSTEGENAEKTKFTIEEVGAPTSSEEGDITMRLTYEPIDLSSILSDGEEKEVTKDTSNDSAKKEEALDTAVKLIKERIAKAPSATYAGYVWGADTRRFNMIVGPGGSNIKKIREAADVIINVPRKSDKVNDVVYIRGTKAGVEKAGEMVLKSLRR
Take B4: the binding result with Dcp1-myc (S. cerevisiae) and with Pbp1-myc (S. cerevisiae) was “binds” in each case.

B5: Rnq1 (protein, UniProt P25367 1-405)
chain: MDTDKLISEAESHFSQGNHAEAVAKLTSAAQSNPNDEQMSTIESLIQKIAGYVMDNRSGGSDASQDRAAGGGSSFMNTLMADSKGSSQTQLGKLALLATVMTHSSNKGSSNRGFDVGTVMSMLSGSGGGSQSMGASGLAALASQFFKSGNNSQGQGQGQGQGQGQGQGQGQGSFTALASLASSFMNSNNNNQQGQNQSSGGSSFGALASMASSFMHSNNNQNSNNSQQGYNQSYQNGNQNSQGYNNQQYQGGNGGYQQQQGQSGGAFSSLASMAQSYLGGGQTQSNQQQYNQQGQNNQQQYQQQGQNYQHQQQGQQQQQGHSSSFSALASMASSYLGNNSNSNSSYGGQQQANEYGRPQQNGQQQSNEYGRPQYGGNQNSNGQHESFNFSGNFSQQNNNGNQNRY
For B5, the binding result in the assay with Dcp1-myc (S. cerevisiae) and in the assay with Pbp1-myc (S. cerevisiae) was “binds” in each case.

B6: Nrp1 (protein, UniProt P32770 1-719)
chain: MHYVVLELQVAHLPDTPKDQCRIANIAFQIVNAETLVCHYGTNSLPSIEVNGTTKSLESAMVQLDKDIHDVIGNDDFVLVSLYSTWHIRVTLPRQARDDGFILTSYLQHPKVFDLWKEFDRWCVNHPEILGQKKAISNNNCNTKSISINAAKNTKDLDEIVRILEVSIPTEEAGSVPEIYSLLKRTTDILIQLHKKCTSPEDMESVLTKPYDSHTDIRAFLQEKSKILYMNNLPPDTTQSELESWFTQYGVRPVGFWTVKNIVEDTSNVNNNWSLNNSPYVEDQDSISGFVVFQTHEEATEVLALNGRSILSNLANTKQPRVVEHVLELQPSSTGVLDKAQEILSPFPQSKNKPRPGDWNCPSCGFSNFQRRTACFRCSFPAPSNSQIHTANSNNNVNSSRNNLNNRVNSGSSSNISNTAANHPYGAPEFNMIANNTPAALTYNRAHFPAITPLSRQNSLNMAPSNSGSPIIIADHFSGNNNIAPNYRYNNNINNNNNNINNMTNNRYNINNNINGNGNGNGNNSNNNNNHNNNHNNNHHNGSINSNSNTNNNNNNNNGNNSNNCNSNIGMGGCGSNMPFRAGDWKCSTCTYHNFAKNVVCLRCGGPKSISGDASETNHYIDSSTFGPASRTPSNNNISVNTNGGSNAGRTDGNDNKGRDISLMEFMSPPLSMATKSMKEGDGNGSSFNEFKSDKANVNFSNVGDNSAFGNGFNSSIRW
With B6, the binding entry with Dcp1-myc (S. cerevisiae) and with Pbp1-myc (S. cerevisiae) was “binds” each time.

B7: Rrp3 (protein, UniProt P38712 1-501)
chain: MSKIVKRKEKKANDELTSLAEKIRAKALENQKKLIEAEKEGGSESDSEEDATAEKKKVLKSKSKSTVSTQNENTNEDESFESFSELNLVPELIQACKNLNYSKPTPIQSKAIPPALEGHDIIGLAQTGSGKTAAFAIPILNRLWHDQEPYYACILAPTRELAQQIKETFDSLGSLMGVRSTCIVGGMNMMDQARDLMRKPHIIIATPGRLMDHLENTKGFSLRKLKFLVMDEADRLLDMEFGPVLDRILKIIPTQERTTYLFSATMTSKIDKLQRASLTNPVKCAVSNKYQTVDTLVQTLMVVPGGLKNTYLIYLLNEFIGKTMIIFTRTKANAERLSGLCNLLEFSATALHGDLNQNQRMGSLDLFKAGKRSILVATDVAARGLDIPSVDIVVNYDIPVDSKSYIHRVGRTARAGRSGKSISLVSQYDLELILRIEEVLGKKLPKESVDKNIILTLRDSVDKANGEVVMEMNRRNKEKIARGKGRRGRMMTRENMDMGER
As for B7, the binding entry with Dcp1-myc (S. cerevisiae) and with Pbp1-myc (S. cerevisiae) was “binds” in each case.

B8: eIF4G1 (protein, UniProt P39935 1-952)
chain: MTDETAHPTQSASKQESAALKQTGDDQQESQQQRGYTNYNNGSNYTQKKPYNSNRPHQQRGGKFGPNRYNNRGNYNGGGSFRGGHMGANSSNVPWTGYYNNYPVYYQPQQMAAAGSAPANPIPVEEKSPVPTKIEITTKSGEHLDLKEQHKAKLQSQERSTVSPQPESKLKETSDSTSTSTPTPTPSTNDSKASSEENISEAEKTRRNFIEQVKLRKAALEKKRKEQLEGSSGNNNIPMKTTPENVEEKGSDKPEVTEKTKPAEEKSAEPEVKQETPAEEGEQGEKGQIKEESTPKVLTFAERLKLKKQQKEREEKTEGKENKEVPVQEETKSAIESAPVPPSEQVKEETEVAETEQSNIDESATTPAIPTKSDEAEAEVEAEAGDAGTKIGLEAEIETTTDETDDGTNTVSHILNVLKDATPIEDVFSFNYPEGIEGPDIKYKKEHVKYTYGPTFLLQFKDKLNVKADAEWVQSTASKIVIPPGMGRGNRSRDSGRFGNNSSRGHDFRNTSVRNMDDRANSRTSSKRRSKRMNDDRRSNRSYTSRRDRERGSYRNEEKREDDKPKEEVAPLVPSANRWVPKFKSKKTEKKLAPDGKTELLDKDEVERKMKSLLNKLTLEMFDAISSEILAIANISVWETNGETLKAVIEQIFLKACDEPHWSSMYAQLCGKVVKELNPDITDETNEGKTGPKLVLHYLVARCHAEFDKGWTDKLPTNEDGTPLEPEMMSEEYYAAASAKRRGLGLVRFIGFLYRLNLLTGKMMFECFRRLMKDLTDSPSEETLESVVELLNTVGEQFETDSFRTGQATLEGSQLLDSLFGILDNIIQTAKISSRIKFKLIDIKELRHDKNWNSDKKDNGPKTIQQIHEEEERQRQLKNNSRSNSRRTNNSSNRHSFRRDAPPASKDSFITTRTYSQRNSQRAPPPKEEPAAPTSTATNMFSALMGESDDEE
Regarding B8, the binding entry in the assay with Dcp1-myc (S. cerevisiae) and with Pbp1-myc (S. cerevisiae) was “binds” in each case.
